# Source: patent publication US7572606B1 (Nereus Pharmaceuticals, Inc., priority 2005, dated 2009)
# Amino acid sequences for entries named in this document (tags omitted). Residues count along the entry.
# UniProt A0A5F9DQW2, 1-212: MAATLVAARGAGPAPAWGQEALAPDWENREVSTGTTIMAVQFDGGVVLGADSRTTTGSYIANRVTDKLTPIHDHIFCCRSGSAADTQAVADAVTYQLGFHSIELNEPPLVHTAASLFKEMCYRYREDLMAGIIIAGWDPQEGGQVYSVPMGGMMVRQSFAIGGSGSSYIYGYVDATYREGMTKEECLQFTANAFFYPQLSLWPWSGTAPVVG
# Some entries share one result that the patent states for a list of compounds. Some ranges recur; such a range may be that of the whole group of compounds.
# Molecular target: caspase-like (PGPH) activity of rabbit muscle 20S proteasome (Oryctolagus cuniculus, UniProt A0A5F9DQW2)
# Experiment: In vitro inhibition of 20S proteasome, Z-LLE-AMC
# Settings: read-out: EC50 Caspase-like, range for the listed group; units printed with the two limits
row,Structure (SMILES),EC50 [µM]
1,C[C@@]12OC(=O)[C@]1([C@@H](O)C1CCCCC1)NC(=O)[C@@H]2CCCl [Formula II-2],0.956 to 8.7
2,C[C@@]12OC(=O)[C@]1([C@@H](O)[C@H]1CCC[C@@H]3O[C@H]13)NC(=O)[C@@H]2CCCl [Formula II-5B],0.956 to 8.7
3,C[C@@]12OC(=O)[C@]1([C@@H](O)[C@@H]1C=CCCC1)NC(=O)[C@@H]2CCO [Formula II-21],0.956 to 8.7
